“And” between values parts separate entries of the source, which are not always exact repeats. Equal values may be shown once. Hit rate of the full screen: of about 350,000 compounds, about 6,000 (1.7%) were called active. Inconclusive means that the source gave no clear call. Such entries were picked first, then a sample of the others. Cut-off read from the data, not from the text of the source: active = CPE inhibition above about 20% (passing the limit was not always enough); inconclusive = no clear call, values can overlap the other calls; tested in BHK-21 cells.
assay: protection of cells from dengue 2 killing – plate reader, single concentration, primary screen (AID 651640); conditions: DENV2-infected cells, cytopathic effect rescue, at 9.99 µM, stronger effect = higher value;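 note: 0% = median of neutral control wells and 100% = median of positive control wells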

| SMILES | CPE inhibition |
| --- | --- |
| O=C(C[C@H]1CC[C@H]2[C@@H](COC[C@H](O)CN2Cc2cccc(C(F)(F)F)c2)O1)NCc1ccc(Cl)cc1 | inconclusive: 29.7% |
| C[C@@H]1CN([C@H](C)CO)S(=O)(=O)c2ccc(-c3ccncc3)cc2O[C@H]1CN(C)C(=O)C1CC1 | inconclusive: 21.7% |
| CN(C)C(=O)c1cccc(-c2ccc([C@@H]3[C@@H](CO)N4C(=O)CN(C(=O)C5CCCCC5)C[C@H]34)cc2)c1 | active: 39.3% |
| C[C@H]1CN([C@@H](C)CO)C(=O)c2cc(C#CCc3ccccc3)cnc2O[C@H]1CN(C)C(=O)C1CCOCC1 | inconclusive: 22.3% |
| Cc1ccc(C(=O)NNc2ncnc3ccccc23)cc1 | inconclusive: 26% |
| Cc1cc(SCC(=O)N(C)C2CCCCC2)nc2ccccc12 | inconclusive: 60.2% |
| Cc1c(NC(=S)NC(=O)CSc2ccc(Cl)cc2)cccc1C(=O)O | inconclusive: 29.7% |
| COc1ccc(CN(C)C[C@@H]2Oc3ccc(NC(=O)Nc4c(C)noc4C)cc3C(=O)N([C@@H](C)CO)C[C@H]2C)cc1 | inactive: 8.53% |
| COc1ccc(CNC(=O)COC(=O)CN2C(=O)NC3(CCCC3)C2=O)cc1 | active: 28.8% |
| CC(=O)N1c2ccc(S(=O)(=O)N3CCCC(C(=O)NC4CCCC(C)C4C)C3)cc2CC1C (stereo not drawn) | inconclusive: 49.4% |
| CCOc1ccccc1C(=O)NCC(=O)NCC(c1ccc(OC)cc1)N1CCOCC1 (stereo not drawn) | inconclusive: 22.9% |
| CCOc1ccc(CCNC(=O)c2ccc(C)c(S(=O)(=O)N3CCOCC3)c2)cc1OCC | inconclusive: 30.1% |
| Cc1ccc(NC(=O)c2ccc3c(c2)CCN3S(C)(=O)=O)cc1 | active: 30.1% |
| CN(C)c1ncnc2sc(-c3ccccc3)cc12 | inactive: 5.28% |
| S=C1Cc2ccccc2N1 | inactive: -8.83% |
| CC1CN(Cc2nc3c(c(=O)n(C)c(=O)n3C)n2Cc2ccccc2)CC(C)O1 (stereo not drawn) | inconclusive: 47% |
| CCN(CC(=O)Nc1sc2c(c1C#N)CCCC2)CC(=O)NC1CCS(=O)(=O)C1 (stereo not drawn) | inconclusive: 29.3% |
| COc1ccccc1C1CC(=O)Oc2cc(C)c(Br)c(C)c21 (stereo not drawn) | inactive: 16.4% |
| C[C@H](CO)N1C[C@H](C)[C@H](CN(C)S(=O)(=O)c2ccc(Oc3ccccc3)nc2)OCc2cnnn2CCCC1=O | inconclusive: 21.5% |
| Cc1nnc(SCC(=O)N2CCOCC2)[nH]c1=O | active: 58.6% |
| C[C@@H]1CN([C@@H](C)CO)C(=O)c2cc(NS(=O)(=O)c3cn(C)cn3)ccc2O[C@@H](C)CCCCO[C@@H]1CN(C)C(=O)c1ccncc1 | inactive: -13.8% |
| Cc1ccc(NC(=O)Nc2ccc3c(c2)C(=O)N(C)[C@H]2CC[C@H](CC(=O)O)O[C@H]2CO3)cc1 | inactive: 0.989% |
| O=S1(=O)N=C(N(Cc2cccs2)c2ccc(O)cc2)c2ccccc21 | inactive: 3.65% |
| O=C(Nc1ccc2c(c1)OCO2)N[C@@H]1CC[C@H](CCNC(=O)C2CCC2)O[C@@H]1CO | active: 32.3% |

| SMILES | CPE inhibition |
| --- | --- |
| CCCCCCN(C(=O)CCCCCN1C(=O)NC(c2ccc(-c3ccccc3)cc2)C(C(=O)OCc2ccccc2)=C1C)C(C(=O)NCCCC)c1ccccn1 (stereo not drawn) | active: 23.2% |
| CO[C@H]1CN(C)C(=O)c2cc(NC(=O)NC3CCCCC3)ccc2OC[C@H](C)N(CC2CC2)C[C@@H]1C | inactive: -10.4% |
| O=C(NCCOc1ccccc1)c1cccc(S(=O)(=O)NCc2ccccc2)c1 | inconclusive: 33.1% |
| O=C(N1CCOCC1)[C@]1(CCS(=O)(=O)c2ccccc2)N=C(c2ccc(OCCCO)cc2)O[C@@H]1c1ccccc1 | active: 22.8% |
| Cc1cc(=O)n2nc(N3CCCC3C(=O)Nc3cccc(Cl)c3C)sc2n1 (stereo not drawn) | inconclusive: 21.2% |
| O=C(NNCc1ccc(O)cc1)c1ccccc1Cl | active: 74.9% |
| CC(C)C(=O)Nc1cccc(COc2cccc(CN(Cc3ccccc3)C(=O)OC(C)(C)C)c2)c1 | inconclusive: 49.4% |
| Cc1ccccc1-c1ccc(C2[C@@H]3CN(C(=O)C4CCOCC4)C[C@H]2N3)cc1 (stereo partly drawn) | inactive: -1.66% and inactive: -5.36% |
| C[C@@H]1CCCCO[C@H](CN(C)Cc2ccc(C(F)(F)F)cc2)[C@@H](C)CN([C@H](C)CO)C(=O)c2cc(NC(=O)CCCN(C)C)ccc2O1 | inconclusive: 32.5% |
| COc1ccccc1NC(=O)N1CCCCN2[C@H](CO)[C@H](c3ccc(C#Cc4ccccc4)cc3)[C@@H]2C1 | active: 25.1% |
| CO[C@@H]1CN(C)C(=O)c2ccc(NC(C)=O)cc2OC[C@H](C)N(Cc2ccc(F)cc2)C[C@@H]1C | inconclusive: 57.1% |
| COc1ccccc1CCC(=O)Nc1ccc2c(c1)c(=O)n(C)n2-c1cccs1 | inconclusive: 32.3% |
| c1cc(-c2ccc(N3CCOCC3)cc2)n2cnnc2c1 | active: 24.3% |
| Cc1noc(C)c1S(=O)(=O)Nc1ccc2c(c1)C(=O)N([C@@H](C)CO)C[C@@H](C)[C@H](CN(C)Cc1ccc(C(=O)O)cc1)O2 | inconclusive: 41.5% |
| COc1ccc2c3c(n(C)c2c1)[C@@H](CO)NCC31CCN(C(=O)Nc2ccc(F)cc2F)CC1 | inconclusive: 21.2% |
| COc1ccc(S(=O)(=O)Nc2ccc3c(c2)C(=O)N([C@H](C)CO)C[C@H](C)[C@H](CN(C)C(=O)Nc2cccc4ccccc24)OCCCC[C@@H](C)O3)cc1 | inconclusive: 59.4% |
| COCC(C)NCc1cc(Br)ccc1OC (stereo not drawn) | inconclusive: 24.7% |
| OCc1ccccc1-c1ccc2nncn2c1 | inactive: 1.63% |
| CCN(CC)C(=O)C1=C(C)N(CCCOC)C(=O)C(CC(=O)NCc2ccco2)C1 (stereo not drawn) | inconclusive: 22.2% |
| Cc1cccc(C)c1OCC(O)Cn1ccnc1C (stereo not drawn) | active: 40.2% |
| O=C(NCC[C@@H]1CC[C@H](NC(=O)C2CC2)[C@H](CO)O1)c1ccc(F)cc1 | inactive: 7.38% |
| O=c1[nH]cnc2c1ncn2C1OC(CO)C(O)C1O (stereo not drawn) | inconclusive: 27.6% |
| CNC(=O)C[C@@H]1C(=O)N(c2ccc(OC)cc2)CC1(C)C | inconclusive: 22.3% |
| CN(CC(=O)Nc1c(Cl)cccc1Cl)CC(=O)N(C)C1(C#N)CCCCC1 | inconclusive: 39.3% |

Laid out differently: 2 of the compounds above
SMILES	CPE inhibition
CCOc1ccccc1C(=O)NCC(=O)NCC(c1ccc(OC)cc1)N1CCOCC1 (stereo not drawn)	inconclusive: 22.9%
COc1ccc(S(=O)(=O)Nc2ccc3c(c2)C(=O)N([C@H](C)CO)C[C@H](C)[C@H](CN(C)C(=O)Nc2cccc4ccccc24)OCCCC[C@@H](C)O3)cc1	inconclusive: 59.4%
